Library screen at single concentrations

Measurements from “University of Dundee, Small-Polar-MMV Screening Library” (2021), ChEMBL document CHEMBL3988442.

Values are the deposited “Percent Effect”, in %. How 0% and 100% were set is not recorded. Most values in the screen are low, and negative values occur. The compounds are a random part of those screened. Two or more numbers in one place are separate tests of the same structure; such repeats can differ widely. A dash means the value is not listed here; it may have been measured.

Leishmania in macrophages: 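Cell assay of Leishmania donovani living inside macrophages; the read-out is not stated. Tested at 30 µM. The record gives no direction; compounds that gave an IC50 in retests scored well above the rest, so higher reads as stronger inhibition. About 69,000 compounds were tested under these conditions; 1.5% (about 1,000) showed 50% or more at least once.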
Toxoplasma: 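Assay of Toxoplasma gondii numbers, read through their beta-galactosidase reporter with a colour substrate. Compounds at 10 µM. Higher reads as fewer parasites (inferred from which compounds were picked for retests). Size under these conditions: about 67,000 compounds, about 260 of them at 50% or above in at least one test.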

| # | Compound | Leishmania in macrophages | Toxoplasma |
|---|---|---|---|
| 1 | `O=C1CN(Cc2cn(CC3CCN(C4CCSCC4)CC3)nn2)CCN1` | 30.72% | 9.644% |
| 2 | `NC(=O)C1CCN(Cc2cccc(NC(=O)c3ccsc3)c2)CC1` | 22.45% | 3.304% |
| 3 | `NS(=O)(=O)c1ccc(N2CCN(CCCc3cn[nH]c3)CC2)cc1` | -5.312% | -11.78% |
| 4 | `CC(C)C(C(=O)N1CCCN(Cc2cnn(C)c2)CC1)n1cncn1` (centres unmarked) | -12.14% | 4.23% |
| 5 | `CN(C)Cc1ccccc1CN(C)c1ncnc2[nH]ccc12` | 15.7% | -5.368% |
| 6 | `Cc1cc(C)nc(N2CC=C[C@H]2C(=O)NCc2ccc3c(c2)OCO3)n1` | 14.86% | - |
| 7 | `COCCN(C)C[C@@H]1CN(C(=O)c2ccc(SC)cc2)C[C@@H]1CO` | 9.85% | 6.121% |
| 8 | `[H][C@]12CCC[C@@]1(COC)CN(C(=O)COCC)C2` | 15.19% | -10.03% |
| 9 | `CN(CCc1ccccc1)C(=O)CN1C(=O)OC[C@@H]1c1ccccc1` | -29.35% | -2.575% |
| 10 | `CC(C)n1cnnc1C1CCCN(S(=O)(=O)c2c[nH]cn2)C1` (centres unmarked) | 2.388% | 2.105% |
| 11 | `O=C(Cc1ccc(F)cc1)NCCNc1cc(N2CCCC2)ncn1` | -9.653% | -7.361% |
| 12 | `O=C(O)C(F)(F)F.O=C1CC[C@]2(CC[C@@H](NCc3ccc4c(c3)OCO4)CC2)N1` | 0.5252% | -2.452% |
| 13 | `O=C(N1CCOCC1)N1CCC(Nc2ccncn2)CC1` | 14.49% | -13.33% |
| 14 | `Cc1nc2cc(C(=O)N(CCC#N)CC3CCCO3)ccc2[nH]1` (centres unmarked) | 5.976% | 24.07% |
| 15 | `COc1ccc(-c2cc3nc([C@H](C)NC(=O)C4CC4)nn3cn2)cc1` | 11.99% & 10.23% | 12.88% |
| 16 | `CC(=O)c1c[nH]c(C(=O)N2CCN(C(C(N)=O)c3ccccc3)CC2)c1` (centres unmarked) | -40.39% | -4.953% |
| 17 | `Cc1cc(C)nc(N2CCC(c3ccnc(N(C)C)n3)CC2)n1` | 12.3% | 19.56% |
| 18 | `O=C(N[C@@H]1CCC[C@@H](N2CCCC2)[C@@H]1O)c1cc2ccccc2[nH]1` | 15.99% & 19.06% | 10.9% |
| 19 | `Cc1nn(C)cc1CN1CCc2c(nc(-c3ccccn3)[nH]c2=O)C1` | 4.595% | -5.545% |
| 20 | `CC(C)(C)c1n[nH]c(C2CN(CC3CCC3)CCO2)n1` (centres unmarked) | 8.072% | -2.363% |
| 21 | `Cc1csc(CN2CC(CO)Oc3ccccc32)n1` (centres unmarked) | -4.409% | 10.77% |
| 22 | `Cc1c[nH]nc1C1CN(Cc2cnn(-c3ccccc3C(=O)O)c2)C1` | 38.54% | -4.962% |
| 23 | `Fc1cnc(N2CCC3(CC2)CN(Cc2cccs2)CCO3)nc1.O=C(O)C(F)(F)F.O=C(O)C(F)(F)F` | 11.97% | 21.36% |
| 24 | `Cc1cc(CN2CCCC2)cc(Oc2ccc3c(c2)CC(CN)O3)c1` (centres unmarked) | 7.49% | -8.923% |
| 25 | `COCC(=O)NCC(Cc1cccc(F)c1)n1cccc1` (centres unmarked) | 18.53% & 7.694% | 20.46% |
| 26 | `CS(=O)(=O)c1ccc(OCCNCc2c(F)cccc2F)cc1` | 8.11% | 15.28% |
| 27 | `O=c1cc(-c2cccnc2)nc(-c2ccc(CN3CC[C@H](O)C3)cc2)[nH]1` | 0.5288% | 1.489% |
| 28 | `CCCS(=O)(=O)N1CC(=O)N(CCCc2ccccc2)CC(O)C1` (centres unmarked) | 12% | -7.935% |
| 29 | `c1ccc(C(Cn2cnnc2)N2CCOCC2)nc1` (centres unmarked) | 4.008% | 3.659% |
| 30 | `Cc1cc(C(=O)Nc2ccc(OC3CCOCC3)c(C)c2)[nH]n1` | -0.4568% | -4.057% |
| 31 | `CCn1ncc2c1CCCC2NCc1cscn1` (centres unmarked) | 14.85% | 7.991% |
| 32 | `CNS(=O)(=O)c1cc(C(=O)NC2COc3ccccc32)cc(C)c1C` (centres unmarked) | 7.03% | -10.74% |
| 33 | `Cc1cnc(CNc2ccc(C(=O)NCc3ccco3)cc2C)o1` | -20.82% | 8.791% |
| 34 | `CCn1ccnc1C1CCCN(c2nccc3ccccc23)C1` (centres unmarked) | -8.704% | 8.018% |
| 35 | `O=C(NCCn1ccnc1)C1(c2ccc3c(c2)OCCO3)CCCC1` | -0.5447% | -2.299% |
| 36 | `[H][C@@]12C[C@H](C(=O)NC(C)C)[C@@]([H])(CN(C(=O)Nc3ccc(CC)cc3)C1)O2` | 17.29% | 16.64% |
| 37 | `CNS(=O)(=O)CC(=O)NC(c1cc(C)sc1C)C(C)C` (centres unmarked) | -15.29% | 4.906% |
| 38 | `O=C(O)C(F)(F)F.[H][C@@]12CN(C(=O)c3cc(C)oc3C)C[C@]1([H])OCCN2CCN1CCCC1` | 6.684% | -42.26% |
| 39 | `COCCN1CC(c2nc(CC3CCN(C)CC3)no2)CCC1=O` (centres unmarked) | 21.14% | 2.372% |
| 40 | `O=C(c1ccccc1N1CCOCC1)N1CCCC(n2cccn2)C1` (centres unmarked) | 10.78% | -0.2872% |
| 41 | `Cc1ccc(NC2CCN(C(=O)Cc3ccc(C)s3)CC2)nn1` | 18.81% | -0.443% |
| 42 | `Cc1ccc2c(c1)C(=O)NCC1(CCN(C(=O)c3ccccn3)CC1)O2` | 39.06% | -22.18% |
| 43 | `CCOc1ccccc1NC(=O)NCc1ccoc1` | 24.29% | 1.402% |
| 44 | `CCN(CC)C(CNCc1cc(F)cc(F)c1)c1ccco1` (centres unmarked) | -1.147% | -3.837% |
| 45 | `CN(Cc1ccon1)C(=O)C1CC(=O)N(Cc2ccncc2)C1` (centres unmarked) | 10.83% | -0.9038% |
| 46 | `Cc1cnc(C(=O)NCc2cccnc2OC(C)C)cn1` | -16.82% | -7.112% |
| 47 | `CSCCCn1ccnc1-c1cccc(C#N)c1` | -14.43% | 2.07% |
| 48 | `Cc1cc(C(=O)N2CCc3[nH]cnc3C2C(=O)O)c(-c2ccccc2)o1` (centres unmarked) | -1.019% | -0.4964% |
| 49 | `CS(=O)(=O)Nc1cccc(CNC(=O)CCNC(=O)c2cccs2)c1` | 12.61% | 3.593% |
| 50 | `Cc1csc(CNC(=O)N2CCCC(c3nncn3C)C2)n1` (centres unmarked) | 11.12% | 11.41% |
| 51 | `Cc1ccc(C(=O)NCCCNS(C)(=O)=O)c(=O)[nH]1` | 1.713% | -5.698% |
| 52 | `Cc1cccc2c1OCCCC2NCc1nccn1Cc1ccccc1` (centres unmarked) | 82.89% | 2.254% |
| 53 | `CC1CN(C(=O)CN(Cc2ccccc2)C2CC2)CCO1` (centres unmarked) | 11.97% | 5.98% |
| 54 | `Cn1ncc(N2CCOCC2)c(Cl)c1=O` | 17.75% | 2.412% |
| 55 | `CC(C)n1ccnc1CN1CCCN(C(=O)c2cscn2)CC1` | 8.24% | 0.626% |
| 56 | `[H][C@]12CC[C@]([H])(CN(S(=O)(=O)c3cc(-n4cccn4)ccc3C)C1)N(C)C2` | -15.86% | -5.1% |
| 57 | `Cc1oc(-c2nc(C#N)c(N(C)C)o2)cc1S(=O)(=O)N1CCCCCC1` | 0.2742% | 15.38% |
| 58 | `CC(C)c1nnc2n1CCN(C(=O)Cc1csc(C(C)(C)C)n1)C2` | 29.78% | -4.028% |
| 59 | `I.c1ccc(Sc2ccc3c(c2)OCO3)c(CNC2=NCCN2)c1` | 21.74% | 26.98% |
| 60 | `O=C(Nc1ccc2c(c1)OCO2)Nc1cnn(C2CCOCC2)c1` | 6.619% | 11.57% |
| 61 | `COc1cccc(CN(Cc2ccco2)Cc2cnc(C)n2C)c1.O=C(O)CC(O)(CC(=O)O)C(=O)O` | -21.11% | 20.73% |
| 62 | `CSc1ncn(-c2nc(NC3CC3)nc(N(C)C)n2)n1` | -3.69% | 1.988% |
| 63 | `CCc1nc2c(s1)C(N(C)C(C)=O)CCC2` (centres unmarked) | 13.24% | -24.77% |
| 64 | `N#CCCN(C(=O)CCc1cccnc1)c1ccc2c(c1)OCCO2` | -0.3815% | -3.142% |
| 65 | `CN(Cc1cc2n(n1)CCCNC2)Cc1n[nH]c2c1CCC2` | 29.82% | 5.556% |
| 66 | `CCOc1ccccc1CN(CC)Cc1ccc(S(=O)(=O)NC)cc1` | -3.273% | -0.46% |
| 67 | `[H][C@@]12CS(=O)(=O)C[C@]1([H])N(Cc1ncc[nH]1)CCN2CCCc1ccccc1` | -0.8101% | 1.796% |
| 68 | `CC(NC(=O)CCCc1ccc(Cl)cc1)c1nnn[nH]1` (centres unmarked) | 7.803% | -1.158% |
| 69 | `COc1cc(CNc2nc(N3CCOCC3)ns2)cc(OC)c1OC` | -0.1081% | -1.705% |
| 70 | `Cn1nnc2c1CCN(CC1CC1)C2COCC1CC1.O=C(O)C(F)(F)F` (centres unmarked) | 15.08% | -1.973% |
| 71 | `Cc1cnn(C(C)C2CC2)c1NC(=O)c1ncccc1O` (centres unmarked) | -22.97% | -44.6% |
| 72 | `CCc1cc(C(=O)N2CCc3nc4c(C)csc4c(=O)n3CC2)on1` | 11.77% & 3.164% | -7.498% |

Once more, the final 6:

{"compound": "[H][C@@]12CS(=O)(=O)C[C@]1([H])N(Cc1ncc[nH]1)CCN2CCCc1ccccc1", "Leishmania in macrophages": -0.8101, "Toxoplasma": 1.796}
{"compound": "CC(NC(=O)CCCc1ccc(Cl)cc1)c1nnn[nH]1", "stereo": "centres unmarked", "Leishmania in macrophages": 7.803, "Toxoplasma": -1.158}
{"compound": "COc1cc(CNc2nc(N3CCOCC3)ns2)cc(OC)c1OC", "Leishmania in macrophages": -0.1081, "Toxoplasma": -1.705}
{"compound": "Cn1nnc2c1CCN(CC1CC1)C2COCC1CC1.O=C(O)C(F)(F)F", "stereo": "centres unmarked", "Leishmania in macrophages": 15.08, "Toxoplasma": -1.973}
{"compound": "Cc1cnn(C(C)C2CC2)c1NC(=O)c1ncccc1O", "stereo": "centres unmarked", "Leishmania in macrophages": -22.97, "Toxoplasma": -44.6}
{"compound": "CCc1cc(C(=O)N2CCc3nc4c(C)csc4c(=O)n3CC2)on1", "Leishmania in macrophages": "11.77 & 3.164", "Toxoplasma": -7.498}